The results in this text go back to PMC12243203.

In the experiment the target is recombinant GST-tag EtSERPIN1 protein (Eimeria tenella). Put plainly: affinity purification with mass spectrometry; rGST-EtSERPIN1 on glutathione resin, mixed with membrane protein from the chicken caecum epithelium at 4 °C for 2 h; eluted with 10 mmol/L reduced glutathione, pH 8.0; SDS-PAGE, silver stain, bands excised, MS; GST-tag as control; only the target purified.

Results are given in words; binding and its absence hold for the method and conditions named. Binding seen in cells or lysates may run through a third protein. A yes stands for co-enrichment or nearness to the bait. Other partners may have been found.

B1: chicken annexin A5 (GgANXA5), endogenous (protein, UniProt P17153 1-321)
chain: MAKYTRGTVTAFSPFDARADAEALRKAMKGMGTDEETILKILTSRNNAQRQEIASAFKTLFGRDLVDDLKSELTGKFETLMVSLMRPARIFDAHALKHAIKGAGTNEKVLTEILASRTPAEVQNIKQVYMQEYEANLEDKITGETSGHFQRLLVVLLQANRDPDGRVDEALVEKDAQVLFRAGELKWGTDEETFITILGTRSVSHLRRVFDKYMTISGFQIEETIDRETSGDLEKLLLAVVKCIRSVPAYFAETLYYSMKGAGTDDDTLIRVMVSRSEIDLLDIRHEFRKNFAKSLYQMIQKDTSGDYRKALLLLCGGDDE
Take B1: the binding entry was “binds”.
